Laboratory results reported in PubChem BioAssay AID2685 (National Center for Advancing Translational Sciences (NCATS), 2010).
The whole screen tested about 320,000 compounds, of which about 2,100 (0.66%) were called active. Inconclusive means that the source gave no clear call. Such entries were picked first, then a sample of the others. Calls come from the whole dose curve; as a rule, active = well fitted inhibition curve with a large enough effect in the signal ratio, with a control signal flat (not every such curve was filed as active); inconclusive = small, poorly fitted or top-dose-only effect, or effect the other way, or a change in a side signal; inactive = flat fitted curve, though single readings scatter; the % refers to the signal ratio. Potencies of inconclusive entries are doubtful fits and often do not repeat.

experiment: qHTS Assay for Lipid Storage Modulators in Drosophila S3 Cells; details: BODIPY lipid droplet fluorescence, 18-24 h, cells fed with added oleic acid; lipid storage change, negative = inhibition: at 46.1 µM (top of the series) unless noted
Summary of the method: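 Drosophila S3 cells loaded with oleic acid (400 uM, as added) and compounds at several concentrations; lipid droplets imaged by 488-nm laser-scanning cytometry, 500–530 nm intensity and object ratio to cell channel. Percent activity normalized to 20 uM Triacsin C.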
% is set by controls: 0 for no effect and ±100 for the full control effect; potency is the fitted concentration of half-maximal effect.

Potency, active:
COc1ccc(C(=O)N2CCc3ccc(NC(=O)c4ccccn4)cc3C2)cc1F 7310 nM

Potency, inconclusive:
O=C(CCn1c(=O)[nH]c2ccsc2c1=O)N1CCN(c2ccc([N+](=O)[O-])cc2)CC1 29100 nM [falling, single point]
CCSc1nnc(NC(=O)CN2C(=O)C3CC=CCC3C2=O)s1 (stereo unspecified) 4.6 nM [falling, full curve, poor fit]
COc1cccc(Nc2ncnc3onc(-c4ccccc4OC)c23)c1 25900 nM [activator, partial curve, poor fit]
CCOC(=O)c1cnn(-c2ccccn2)c1N 820 nM [activator, single point]
COc1ccc(N2CCN(c3nc4c(c(=O)[nH]c(=O)n4C)n3Cc3cccc(C)c3)CC2)cc1 2910 nM [rising, partial curve]
COC(=O)c1nnn(-c2nonc2N)c1CSc1ccc(Cl)cc1 326 nM [activator, full curve]
CC(Sc1ccccn1)C(=O)Nc1ccc2c(c1)OCCO2 (stereo unspecified) 1160 nM [activator, full curve]
O=C(/C=C/c1ccc(-c2ccccc2[N+](=O)[O-])o1)c1ccc(Br)cc1 14600 nM [rising, partial curve, poor fit]
CC(C)c1cc(N2CCN(C(=O)c3ccco3)CC2)n2c(nc3ccccc32)c1C#N 411 nM [rising, full curve]
COc1nnc(-c2ccc(N3CCCCC3)c(NC(=O)C3CCCCC3)c2)c2ccccc12 2060 nM [rising, partial curve]
NS(=O)(=O)c1ccc(CNC(=O)c2csc3c2CCCC3)cc1 146 nM [falling, full curve, poor fit]
C=CCOc1ccc(C2C3=C(CCCC3=O)N(CC(=O)O)C3=C2C(=O)CCC3)cc1OCC 29100 nM [activator, single point]
COc1ccc(-c2nn3c(COc4ccccc4)nnc3s2)cc1OC 92 nM [activator, full curve, poor fit]
Cn1cccc1C(=O)Nc1nccs1 2910 nM [activator, partial curve]
Cc1ccc(C(=O)Nc2cccc(N3C(=O)C4CCC(C)CC4C3=O)c2)cc1 (stereo unspecified) 29100 nM [falling, single point]
Cc1ccc(CNC(=O)CNS(=O)(=O)c2ccc3c(c2)C(C)(C)C(=O)N3C)cc1 5170 nM [falling, full curve]
Cc1ccc(N(CC(=O)Nc2ccc(C)cc2C)S(=O)(=O)N2CCCC2)cc1 206 nM [rising, full curve, poor fit]

Lipid storage change, negative = inhibition, inactive:
CC(C)(C)c1cc(N2CCOCC2)n2ncc(-c3ccccc3)c2n1 6.85%
COc1ccc(Cl)cc1NC(=O)Nc1ccccc1C(N)=O 0.552%

Lipid storage change, negative = inhibition, inconclusive:
Cn1c(-n2c(CCN3C(=O)c4ccccc4C3=O)nc3ccccc3c2=O)nc2ccccc21 16.2%
COC(=O)c1ccc(CSc2nnc(-c3ccc4c(c3)OCO4)n2-c2ccccc2)o1 -89.5%
O=C(CN(C1CCCCC1)S(=O)(=O)c1ccc(F)cc1)NC1CC1 3.99%
N#Cc1nc(COc2cccc(Cl)c2)oc1NCc1ccco1 31% [activator]
CCn1cc(CNC(=O)c2cc(Cl)ccc2OC)c(C)n1 54.9%
CCOc1ccc(CCNC(=O)C2CCN(c3nnc(-n4cccc4)s3)CC2)cc1OCC 24.7%
CCOC(=O)c1[nH]c2ccccc2c1NC(=S)Nc1ccccc1C 25.3%
O=C(O)c1ccc(CNCc2cccc(Cl)c2Cl)cc1 14.3%
CN(C)S(=O)(=O)c1ccc(C(=O)NCC(c2cccs2)N2CCOCC2)cc1 (stereo unspecified) 10.9%
COc1ccc(S(=O)(=O)n2ccnc2)c2cccnc12 -136%
NCC1CC2c3ccccc3C1c1ccccc12 (stereo unspecified) -19.2%
Cc1onc(-c2ccccc2Cl)c1C(=O)N[C@@H]1C(=O)N2[C@@H]1SC(C)(C)[C@@H]2C(=O)O 15.7%
CC(/C=C/c1ccco1)=N/NC(=O)Cc1cccs1 -4.68%
Cc1ccc(-c2nnc(SCC(=O)N/N=C/c3c(C)nn(-c4ccccc4)c3C)n2-c2ccc(C)cc2)cc1 21.1%
CCn1cc(Br)c(C(=O)N(C)Cc2ccccc2)n1 -6.99%
CCOC(=O)N1CCN(C(=O)C2CCN(S(=O)(=O)N(CC)CC)CC2)CC1 1.49%
CCOC(=O)c1c(C)[nH]c(N=Nc2ccc(C)cc2C)c1C -192%
CC1(C)Cc2cccc(OCC(=O)N3CCN(S(=O)(=O)c4ccc(F)cc4)CC3)c2O1 37.4%
CN(CC(=O)NCc1ccccn1)S(=O)(=O)c1ccccc1 21%
Cc1oc2cc3oc(=O)c(CCC(=O)NCCCC(=O)O)c(C)c3cc2c1C 300%
CN1C2=NCCN2C(=O)c2ccccc21 -92.8%
CCOC(=O)c1c(NC(=S)Nc2ccccc2)sc2c1CCN(CCc1ccccc1)C2 -53.7%
CC(C)Cc1nnc(NC(=O)CSc2nc(O)c(Cc3ccccc3)c(=O)[nH]2)s1 -26.6%
COc1ccc2c(c1)CC1c3c(cc4c(c3-2)OCO4)CC[N+]1(C)[O-] (stereo unspecified) 9.71%
CCCCSc1nc2sc3c(c2c(=O)n1-c1ccccc1)CCN(C)C3 308%
C#CCOCCOCCOCCNc1nc(N2CCOCC2)nc(N2CCN(C(=O)[C@H](Cc3cc4ccccc4[nH]3)n3cc([C@@H](N)CC(C)C)nn3)CC2)n1 -7.61%
CCC(C(=O)O)n1nnc(-c2ccc(-c3ccc(OC)cc3)cc2)n1 (stereo unspecified) -3.73%
CC(=O)NS(=O)(=O)c1ccc(NC(=O)c2ccc(NC(=O)c3cccs3)cc2)cc1 49.8%
CC(=O)c1ccc(NC(=O)CSc2ccc(-c3sc(C)nc3C)nn2)cc1 1.37%
O=S(=O)(N/N=C\c1ccc2c(c1)OCO2)c1ccc(Cl)cc1 3.69%
Nc1ccc(C(=O)OCc2csc(-c3ccccc3)n2)cc1[N+](=O)[O-] 40.3%
CCOC(=O)c1cc(-c2ccc(Cl)cc2)nc2c1c(C)nn2CCC#N -4.84%
COc1ccc(C=C(C#N)C#N)c(CSc2ccccn2)c1 -47.6%
COc1ccc(Cl)cc1NC(=O)CN(C)C(=O)C12CC3CC(CC(Cl)(C3)C1)C2 57.7%
c1ccc(Cn2c(CSc3nnnn3-c3ccccc3)nc3ccccc32)cc1 50.9%
CC(=O)c1cccc(S(=O)(=O)NC2CCSc3ccccc32)c1 (stereo unspecified) 21.1%
O=C(CSc1nnc(-c2ccccn2)n1Cc1ccco1)c1ccccc1 27.7%
O=C(CCN1CCN(c2ccccc2)CC1)N/N=C/c1ccc([N+](=O)[O-])o1 -10.6%
CS(=O)(=O)c1ccc(-c2nnc(NC(=O)c3ccc(S(=O)(=O)N4CCCC4)cc3)o2)cc1 -2.71%
CN(C(=O)C1CCCO1)c1nnc(-c2ccncc2)s1 (stereo unspecified) 43.1%
CCCCNC(=O)C(c1ccc(-c2ccccc2)cc1)N(CCN1CCOCC1)C(=O)CCCCCN1C(=O)NC(c2ccc([N+](=O)[O-])cc2)C(C(=O)OCc2ccccc2)=C1C (stereo unspecified) 29.4%
O=C1C(Cc2ccc(Br)cc2)SC(=Nc2ccccc2)N1c1ccccc1 (stereo unspecified) 25.1%
CC(CN1CCCCC1)C(=O)NNC(=O)C12CC3CC(CC(C3)C1)C2 (stereo unspecified) -11.9%
COc1ccc(-n2nc(C(=O)NCC(=O)NCc3ccccc3OC)c3ccccc3c2=O)c(OC)c1 2.54%
O=C(/C=C/c1cccnc1)c1ccccc1O 13.3%
CCN(CC)S(=O)(=O)c1ccc(C)c(NC(=O)CNCc2ccccc2OC)c1 461%
CCOc1cc(C=O)cc(Br)c1OCC(N)=O -27.5% [at 9.22 µM]
O=C(Nc1cccc(C(=O)N2CCCCC2)c1)c1ccc(Cl)cc1 -27.1%
COc1ccc(C(=O)N/N=C/c2ccc(OC)c(CN3CCc4cc(OC)c(OC)cc4C3C)c2)cc1 (stereo unspecified) 4.16%
CC(C)(C)N1CC(C(=O)Nc2cccc(Cl)c2Cl)CC1=O (stereo unspecified) 31.7%
CC(C)Oc1ccc(C(=O)OC(C)C(=O)NC2CCCCC2C)cc1 (stereo unspecified) 24.5%
Cn1nc(C(=O)Nc2ccc(S(=O)(=O)N3CCOCC3)cc2)c2ccccc2c1=O 99.9%
CCOC(=O)N1CCN(C(=O)CN(C2CCCCC2)S(C)(=O)=O)CC1 -51.9%
Cc1cc(Cl)ccc1OCC(=O)Nc1ccccc1NS(=O)(=O)c1cccs1 22.1%
Cc1ccccc1NC(=O)NCC1CCN(Cc2cccc(Cl)c2)CC1 15.2%

Six successive records already listed, for reference:
Lipid storage change, negative = inhibition, inconclusive:
CCOC(=O)c1cc(-c2ccc(Cl)cc2)nc2c1c(C)nn2CCC#N -4.84%
COc1ccc(C=C(C#N)C#N)c(CSc2ccccn2)c1 -47.6%
COc1ccc(Cl)cc1NC(=O)CN(C)C(=O)C12CC3CC(CC(Cl)(C3)C1)C2 57.7%
c1ccc(Cn2c(CSc3nnnn3-c3ccccc3)nc3ccccc32)cc1 50.9%
CC(=O)c1cccc(S(=O)(=O)NC2CCSc3ccccc32)c1 (stereo unspecified) 21.1%
O=C(CSc1nnc(-c2ccccn2)n1Cc1ccco1)c1ccccc1 27.7%

Next part.

outcome, inactive:
COC(=O)c1ccc(NS(=O)(=O)c2ccc(OC)cc2)cc1 inactive [at 46.1 µM]
